Laboratory results published in article PMC9172573, “Covalent labeling of a chromatin reader domain using proximity-reactive cyclic peptides†” (Chemical Science, 2022).
Results are given in words; binding and its absence hold for the method and conditions named. Some entries that bind do so weakly or less than the wild type. Tags and fused reporters may be left off the sequences shown.

T1: His6-MBP-PHD3 (PHD3 domain of histone demethylase KDM5A) (UniProt P29375)
T1 sequence: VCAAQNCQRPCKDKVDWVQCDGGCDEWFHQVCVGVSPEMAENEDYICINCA


Target: T1, His6-MBP-PHD3 (PHD3 domain of histone demethylase KDM5A)
Assay: fluorescence polarisation; competition: recombinant His6-MBP-PHD3 incubated with the 10mer H3K4me3 tracer (C-terminal fluorescent label), then varying concentrations of the competing peptide; Ki; both purified

Row | Binder | binding
1 | ARTKQT (N-terminal methyl; trimethyllysine at 4) [N-terminally methylated H3K4me3 6mer peptide (3)] | binds
2 | ARTKQT (monomethylated guanidino group of R2; trimethyllysine at 4) [H3K4me3 6mer peptide 10 (R2 guanidino group monomethylated)] | binds
